Source: patent US20070259094A1, “N-acetylglucosamine as a food and beverage additive” (priority 2002, published 2007)

Tests used:
[1] = Taste and smell of aqueous solution; settings: for smell of solution / taste of solution: 2 grams in 180 mL of water; for Taste: table Glucosamine Characteristics
[2] = N-Acetylglucosamine Taste Test (taste panel, 100 millimeter scale); settings: average, 10 subjects (A6: three)

Compound	smell of solution [1]	taste of solution [1]	Taste [1]	Like the Taste (1 to 100) [2]	Sweetness Score (1 to 100) [2]
N[C@H]1C(O)O[C@H](CO)[C@@H](O)[C@@H]1O.O=S(=O)(O)O (stereo partly shown) [Glucosamine Sulphate]	slightly fishy	unpalatable described as salty, sour to bitter	Fishy and unpalatable	3	8.7
Cl.N[C@H]1C(O)O[C@H](CO)[C@@H](O)[C@@H]1O (stereo partly shown) [Glucosamine hydrochloride]	slightly fishy	unpalatable described as salty, sour to bitter	Salty, sour to very bitter	–	–
CC(=O)N[C@H]1C(O)O[C@H](CO)[C@@H](O)[C@@H]1O (stereo partly shown) [N-Acetylglucosamine, N-acetylglucosamine]	no smell	slightly sweetish taste	Slightly sweet	52.8	35.6
